From paper PMC8063088 come the findings set out here.

Sequences of proteins named here, by UniProt entry; tags and fusion partners are left off. A change or cut given only in a name is not applied to a line headed by its entry. Residues count along the entry.
UniProt P97798: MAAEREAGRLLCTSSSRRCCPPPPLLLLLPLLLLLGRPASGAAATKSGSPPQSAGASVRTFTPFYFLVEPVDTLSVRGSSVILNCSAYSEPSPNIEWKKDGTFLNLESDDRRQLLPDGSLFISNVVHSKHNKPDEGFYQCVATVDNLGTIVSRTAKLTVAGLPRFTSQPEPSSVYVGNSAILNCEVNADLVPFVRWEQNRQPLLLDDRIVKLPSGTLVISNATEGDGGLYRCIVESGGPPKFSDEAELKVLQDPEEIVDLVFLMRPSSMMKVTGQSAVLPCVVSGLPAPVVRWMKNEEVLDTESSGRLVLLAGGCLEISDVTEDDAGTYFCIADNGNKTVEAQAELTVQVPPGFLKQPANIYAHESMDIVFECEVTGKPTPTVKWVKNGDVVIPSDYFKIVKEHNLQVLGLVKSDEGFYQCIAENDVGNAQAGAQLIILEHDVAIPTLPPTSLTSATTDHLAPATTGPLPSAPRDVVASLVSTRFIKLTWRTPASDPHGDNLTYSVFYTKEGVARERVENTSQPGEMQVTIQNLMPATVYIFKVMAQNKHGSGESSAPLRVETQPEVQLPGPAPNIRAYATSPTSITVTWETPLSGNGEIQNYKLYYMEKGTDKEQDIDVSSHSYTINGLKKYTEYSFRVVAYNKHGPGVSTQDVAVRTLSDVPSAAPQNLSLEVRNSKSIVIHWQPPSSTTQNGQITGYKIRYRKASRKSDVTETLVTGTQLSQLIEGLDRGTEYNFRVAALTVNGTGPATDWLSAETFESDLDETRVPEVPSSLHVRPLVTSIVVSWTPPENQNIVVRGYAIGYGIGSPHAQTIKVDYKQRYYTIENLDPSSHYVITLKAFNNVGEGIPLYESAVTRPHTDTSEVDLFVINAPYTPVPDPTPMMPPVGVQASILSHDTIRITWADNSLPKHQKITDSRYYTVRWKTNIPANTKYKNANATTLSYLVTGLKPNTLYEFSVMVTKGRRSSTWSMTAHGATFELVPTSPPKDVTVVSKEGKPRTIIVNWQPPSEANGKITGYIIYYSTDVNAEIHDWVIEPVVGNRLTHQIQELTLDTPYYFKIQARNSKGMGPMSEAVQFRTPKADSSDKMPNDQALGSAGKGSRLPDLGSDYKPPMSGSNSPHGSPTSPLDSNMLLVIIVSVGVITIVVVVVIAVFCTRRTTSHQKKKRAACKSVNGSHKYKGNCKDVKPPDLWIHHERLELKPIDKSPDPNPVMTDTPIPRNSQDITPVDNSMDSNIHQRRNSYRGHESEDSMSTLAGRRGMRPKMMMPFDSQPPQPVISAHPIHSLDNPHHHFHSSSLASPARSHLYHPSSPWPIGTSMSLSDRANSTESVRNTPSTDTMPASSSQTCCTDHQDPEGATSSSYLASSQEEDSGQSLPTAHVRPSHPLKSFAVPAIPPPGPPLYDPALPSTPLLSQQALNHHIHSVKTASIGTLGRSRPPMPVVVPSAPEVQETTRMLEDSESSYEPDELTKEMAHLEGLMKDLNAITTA
wild type mouse NEO1 (pCMVXL-6-NEO1): residues 37-1492 of P97798
GFP-NEO1 (pcDNA3.1-CMV-GFP-NEO1): residues 46-1492 of P97798
UniProt Q6PCX7: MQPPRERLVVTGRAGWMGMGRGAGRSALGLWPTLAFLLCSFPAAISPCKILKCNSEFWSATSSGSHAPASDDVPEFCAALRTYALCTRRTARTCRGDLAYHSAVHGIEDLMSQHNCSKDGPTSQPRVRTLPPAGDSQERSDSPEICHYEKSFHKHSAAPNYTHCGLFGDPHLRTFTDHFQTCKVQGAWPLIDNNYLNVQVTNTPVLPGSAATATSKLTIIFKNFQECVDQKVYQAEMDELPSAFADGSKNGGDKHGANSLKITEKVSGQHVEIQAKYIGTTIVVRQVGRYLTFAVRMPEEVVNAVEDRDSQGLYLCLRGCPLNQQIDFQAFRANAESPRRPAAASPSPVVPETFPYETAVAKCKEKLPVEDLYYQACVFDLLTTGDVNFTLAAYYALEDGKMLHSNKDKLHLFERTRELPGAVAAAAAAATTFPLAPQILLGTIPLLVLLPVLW

No constants are given. Whether binding was seen depends on the method and setting. A result given as binding can be weak or reduced; the word gives no strength. For some assays here: Where a sequence is shown, tags or fusion partners need not be part of it. For some assays here: Binding seen in cells or lysates may run through a third protein.

The target of test [1] is GFP-NEO1 (pcDNA3.1-CMV-GFP-NEO1) (mouse) (UniProt P97798). Nature of the test: AP-ligand binding to cells; COS-7 cells transfected with wild type mouse NEO1, GFP-NEO1 or empty pcDNA3.1; AP-ligands 75 min at RT in HBHA buffer; bound AP shown with NBT/BCIP.
Test [2] addresses wild type mouse NEO1 (pCMVXL-6-NEO1) (mouse) (UniProt P97798). Described as above.
Test [3] addresses NEO1-mVenus fusion protein (mouse) (UniProt Q7TQG5). Nature of the test: proximity ligation; same PLA as a5, read for full-length RGMB and NEO1-mVenus co-transfected in COS-7 cells.
For test [4], the target named is NEO1 FN type III domains 4 to 6 (NEO1_(FN456)) (mouse). Put plainly: SEC; binary NEO1_(FN456) with RGMAECD or RGMCECD; Superose 6 Increase 10/300 GL, 150 mM NaCl, 10 mM HEPES pH 7.5, 2 mM CaCl2, 21 °C; fractions on SDS-PAGE; both purified.
The target is the same in test [5]. Nature of the test: SEC; ternary NET1-NEO1-RGMC; Superose 6 Increase 10/300 GL, 150 mM NaCl, 10 mM HEPES pH 7.5, 2 mM CaCl2, 1 mM sucrose octasulfate, 21 °C; input 0.6 ml at 2.6 mg/ml; SDS-PAGE; both purified. For orientation: SEC sorts molecules by how far they enter the pores of the column.
The target is the same in test [6]. Nature of the test: crystal structure; ternary NEO1_(FN456):NET1_(ΔNTR):RGMB_(CORE) complex, equimolar mix, SEC-purified, endoglycosidase F1-treated, 3 mM sucrose octasulfate; 3.25 Å; 3:3:3 trimer-of-trimers; both purified.
The target of test [7] is NEO1-mVenus fusion protein (mouse) (UniProt Q7TQG5). Nature of the test: proximity ligation; same PLA as a3, read for the soluble ligands against NEO1-mVenus on COS-7 cells; only the binder purified.
The target in test [8] is NEO1 FN type III domains 4 to 6 (NEO1_(FN456)) (mouse). Nature of the test: AUC; sedimentation velocity, 20 °C; ternary NEO1_(FN456)-NET1_(ΔNTR)-RGMBECD complexes (NET1 wild type or Interface-1/-2 mutants) mixed equimolar, 10 mM HEPES pH 7.5, 150 mM NaCl, 2 mM CaCl2; both purified.
Test [9] has the same target. Put plainly: SEC-SAXS; ternary NEO1_(FN456)-NET1_(ΔNTR)-RGMBECD at 3.3, 4.0 and 6.0 mg/ml; 10 mM Tris pH 7.5, 150 mM NaCl, 3 mM CaCl2, 1 mM KNO3; 298 K; both purified.
Test [10] has the same target. Put plainly: SEC; ternary NEO1_(FN456)-NET1_(ΔNTR)-RGMBECD on S200 10/300 Increase; 10 mM HEPES pH 7.5, 150 mM NaCl, 2 mM CaCl2, 1 mM SOS, 4 °C; fractions on SDS-PAGE; both purified.
Test [11] shares this target. Nature of the test: SEC-MALS; ternary NEO1_(FN456)-NET1_(ΔNTR)-RGMBECD (1.0 mg/ml, Superdex 200 10/30) and -RGMAECD (1.8 mg/ml, Superose 6 Increase 10/300); 150 mM NaCl, 10 mM HEPES pH 7.5, 2 mM CaCl2, 1 mM sucrose octasulfate, 21 °C; both purified.
Test [12] has the same target. Nature of the test: cryo-EM structure; ternary NEO1_(FN456)-NET1_(ΔNTR)-RGMBECD, SEC peak fraction at 0.07 mg/ml; C3 symmetry; 6.0 Å; both purified.

As for RGMA-AP (from UniProt Q6PCX7) (ligand), the binding entry in test [1] and in test [2] was “binds” in each case.

Take “full-length GPI-anchored RGMB (RGMBFL), N-terminal FLAG (from UniProt Q6NW40) (ligand)”: the binding result in [3] is on record as “binds”.

B1: full-length extracellular domain of RGMC (RGMCECD) (ligand, UniProt Q6ZVN8 36-400)
chain: QCKILRCNAEYVSSTLSLRGGGSSGALRGGGGGGRGGGVGSGGLCRALRSYALCTRRTARTCRGDLAFHSAVHGIEDLMIQHNCSRQGPTAPPPPRGPALPGAGSGLPAPDPCDYEGRFSRLHGRPPGFLHCASFGDPHVRSFHHHFHTCRVQGAWPLLDNDFLFVQATSSPMALGANATATRKLTIIFKNMQECIDQKVYQAEVDNLPVAFEDGSINGGDRPGGSSLSIQTANPGNHVEIQAAYIGTTIIIRQTAGQLSFSIKVAEDVAMAFSAEQDLQLCVGGCPPSQRLSRSERNRRGAITIDTARRLCKEGLPVEDAYFHSCVFDVLISGDPNFTVAAQAALEDARAFLPDLEKLHLFPSD
As for B1, the binding result in test [4] and in [5] was “binds” in each case.

B2: RGMB NEO1-binding region (RGMB_(CORE)) (domain or fragment, UniProt Q6NW40 137-334)
chain: DPCNYHSHAGAREHRRGDQNPPSYLFCGLFGDPHLRTFKDNFQTCKVEGAWPLIDNNYLSVQVTNVPVVPGSSATATNKITIIFKAHHECTDQKVYQAVTDDLPAAFVDGTTSGGDSDAKSLRIVERESGHYVEMHARYIGTTVFVRQVGRYLTLAIRMPEDLAMSYEESQDLQLCVNGCPLSERIDDGQGQVSAILG
In the case of B2, the binding result in test [6] is “binds”.

B3: RGMBECD wild type, N-terminal FLAG and C-terminal His6 (ligand, UniProt Q6NW40 53-412)
chain: QCRIQKCTTDFVSLTSHLNSAVDGFDSEFCKALRAYAGCTQRTSKACRGNLVYHSAVLGISDLMSQRNCSKDGPTSSTNPEVTHDPCNYHSHAGAREHRRGDQNPPSYLFCGLFGDPHLRTFKDNFQTCKVEGAWPLIDNNYLSVQVTNVPVVPGSSATATNKITIIFKAHHECTDQKVYQAVTDDLPAAFVDGTTSGGDSDAKSLRIVERESGHYVEMHARYIGTTVFVRQVGRYLTLAIRMPEDLAMSYEESQDLQLCVNGCPLSERIDDGQGQVSAILGHSLPRTSLVQAWPGYTLETANTQCHEKMPVKDIYFQSCVFDLLTTGDANFTAAAHSALEDVEALHPRKERWHIFPSSG
Turning to B3, the binding result in test [7] is given as “binds”.

B4: full-length ectodomain of RGMB (RGMBECD), C-terminal His6 (ligand, UniProt Q6NW40 53-412)
chain: B3 chain
In the case of B4, the binding result in test [8], in test [9], in test [10], in [11] and in test [12] was “binds” each time.

B5: full-length extracellular domain of human RGMA (RGMAECD) (ligand, UniProt Q96B86 47-423)
chain: PCKILKCNSEFWSATSGSHAPASDDTPEFCAALRSYALCTRRTARTCRGDLAYHSAVHGIEDLMSQHNCSKDGPTSQPRLRTLPPAGDSQERSDSPEICHYEKSFHKHSATPNYTHCGLFGDPHLRTFTDRFQTCKVQGAWPLIDNNYLNVQVTNTPVLPGSAATATSKLTIIFKNFQECVDQKVYQAEMDELPAAFVDGSKNGGDKHGANSLKITEKVSGQHVEIQAKYIGTTIVVRQVGRYLTFAVRMPEEVVNAVEDWDSQGLYLCLRGCPLNQQIDFQAFHTNAEGTGARRLAAASPAPTAPETFPYETAVAKCKEKLPVEDLYYQACVFDLLTTGDVNFTLAAYYALEDVKMLHSNKDKLHLYERTRDLPGR
For B5, the binding entry in [4] and in test [11] was “binds” in each case.
